Consider one substance from paper PMC11250262.

Chains of the proteins cited; added tags and fusions are not shown. Residues count along the entry.
UniProt P41968: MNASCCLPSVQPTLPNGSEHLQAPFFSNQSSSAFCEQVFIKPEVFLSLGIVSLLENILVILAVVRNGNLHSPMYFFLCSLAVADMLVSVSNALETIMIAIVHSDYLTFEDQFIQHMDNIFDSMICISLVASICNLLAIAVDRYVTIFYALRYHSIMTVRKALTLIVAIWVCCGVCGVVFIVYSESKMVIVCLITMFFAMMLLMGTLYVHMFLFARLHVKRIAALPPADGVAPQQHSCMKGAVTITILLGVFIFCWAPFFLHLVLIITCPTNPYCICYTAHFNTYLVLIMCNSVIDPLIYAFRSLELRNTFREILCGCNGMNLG
UniProt Q9NYM4, residues 17-423: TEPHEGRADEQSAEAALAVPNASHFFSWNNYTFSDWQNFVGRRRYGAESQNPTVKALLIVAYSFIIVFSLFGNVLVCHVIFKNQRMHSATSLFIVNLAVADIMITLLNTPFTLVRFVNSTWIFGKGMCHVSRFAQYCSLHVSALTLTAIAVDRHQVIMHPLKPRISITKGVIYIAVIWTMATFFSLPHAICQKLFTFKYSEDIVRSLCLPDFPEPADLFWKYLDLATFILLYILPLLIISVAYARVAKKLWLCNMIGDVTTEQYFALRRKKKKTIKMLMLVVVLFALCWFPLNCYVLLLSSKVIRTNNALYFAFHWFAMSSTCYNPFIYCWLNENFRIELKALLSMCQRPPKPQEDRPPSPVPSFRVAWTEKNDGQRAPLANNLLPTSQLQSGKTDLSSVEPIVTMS

No constants are given. Whether binding was seen depends on the method and setting. In cells and extracts the contact can be indirect. Some results given as binding are weak or reduced against the parent protein; the word gives no strength.

The assay concerns the target MC3R-RlucII (human) (UniProt P41968). Put plainly: FRET or BRET; BRET1 in titration configuration in HEK293 cells; constant MC3R-RlucII plasmid (0.5 ng per well), increasing doses of GPR83-Venus plasmid; soluble Venus as negative control; 24 h post-transfection, Tyrode's buffer, read 10 min after coelenterazine H; four independent experiments. On the technique in general: BRET reads energy transfer from a luciferase to a nearby fluorophore.

On to “GPR83-Venus (from UniProt Q9NYM4-1 17-423) (receptor)”, for which the binding entry was “binds”.
